This note sets out measurements from patent US20170190744A1 (Vicuron Pharmaceuticals, Inc., priority 2015, published 2017).

The test system of this data set is N,N′-diacetyl-Lys-D-Ala-D-Ala. Description: Isothermal titration calorimetry of tri-peptide binding, with/without HSA. (In general: In ITC the heat of successive injections is recorded.)

As for `CN[C@H](CC(C)C)C(=O)N[C@H]1C(=O)N[C@@H](CC(N)=O)C(=O)N[C@H]2C(=O)N[C@H]3C(=O)N[C@H](C(=O)N[C@H](C(=O)O)c4cc(O)cc(O)c4-c4cc3ccc4O)[C@H](O)c3ccc(c(Cl)c3)Oc3cc2cc(c3O[C@@H]2O[C@H](CO)[C@@H](O)[C@H](O)[C@H]2O[C@H]2C[C@](C)(N)[C@H](O)[C@H](C)O2)Oc2ccc(cc2Cl)[C@H]1O` [Vancomycin, vancomycin, reference compound], under “T 10 °C, [HSA] 0 μM”, the ΔH was -9.49 kcal/mol and the ΔS is given as −6.80 eu. For the setting “T 25 °C, with HSA 513 μM”, this compound registered a ΔH of -10.09 kcal/mol and a ΔS of −8.80 eu.
